# Source: publication PMC7192585
# Protein sequences, listed by entry. Tags and fused reporters are not part of them.
# UniProt P05412: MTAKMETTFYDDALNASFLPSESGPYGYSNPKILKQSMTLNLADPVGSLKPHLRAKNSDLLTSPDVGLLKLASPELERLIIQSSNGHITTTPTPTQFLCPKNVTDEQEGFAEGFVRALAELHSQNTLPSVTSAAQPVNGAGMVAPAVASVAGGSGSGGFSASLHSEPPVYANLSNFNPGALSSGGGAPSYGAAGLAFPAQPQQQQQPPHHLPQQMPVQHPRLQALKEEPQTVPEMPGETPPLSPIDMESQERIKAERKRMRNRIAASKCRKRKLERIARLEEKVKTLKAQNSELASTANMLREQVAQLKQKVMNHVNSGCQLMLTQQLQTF
# UniProt Q16659: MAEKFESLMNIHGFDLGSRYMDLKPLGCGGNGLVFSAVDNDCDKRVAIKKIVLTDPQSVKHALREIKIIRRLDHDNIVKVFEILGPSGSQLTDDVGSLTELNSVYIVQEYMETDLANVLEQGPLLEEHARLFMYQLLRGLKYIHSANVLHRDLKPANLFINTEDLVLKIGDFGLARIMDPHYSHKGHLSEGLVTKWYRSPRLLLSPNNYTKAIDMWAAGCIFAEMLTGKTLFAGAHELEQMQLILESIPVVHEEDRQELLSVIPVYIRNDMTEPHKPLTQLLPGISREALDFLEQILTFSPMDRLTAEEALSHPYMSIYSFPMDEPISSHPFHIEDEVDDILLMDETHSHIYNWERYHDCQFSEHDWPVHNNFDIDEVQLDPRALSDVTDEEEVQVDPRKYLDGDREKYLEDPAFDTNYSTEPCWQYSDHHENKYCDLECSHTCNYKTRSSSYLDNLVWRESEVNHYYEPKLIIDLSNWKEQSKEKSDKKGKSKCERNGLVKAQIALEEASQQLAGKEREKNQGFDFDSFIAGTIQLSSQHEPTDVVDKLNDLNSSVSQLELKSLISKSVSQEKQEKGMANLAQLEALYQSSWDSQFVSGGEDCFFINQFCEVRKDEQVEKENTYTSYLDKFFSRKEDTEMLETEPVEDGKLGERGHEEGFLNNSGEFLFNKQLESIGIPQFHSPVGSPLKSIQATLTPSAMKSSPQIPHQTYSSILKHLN
# Results are given in words; binding and its absence hold for the method and conditions named. In cells and extracts the contact can be indirect. Some results given as binding are weak or reduced against the parent protein; the word gives no strength.
# How the values were obtained:
# [1] = molecular target: c-Jun, endogenous (human (endogenous in HT-29)) (UniProt P05412); assay: co-IP; endogenous proteins; HT-29 cells unstimulated or stimulated with LPS (200 ng/ml, 4 hr, medium without FBS); lysed in IP buffer (10 mM HEPES pH 7.4, 150 mM NaCl, 1% Triton X-100); lysate with c-Jun, ERK3 or Normal Rabbit IgG antibody and Protein A/G-Agarose beads, 2 hr at 4°C; immunoblot
# [2] = molecular target: ERK3 (MAPK6), endogenous (human (endogenous in HT-29)) (UniProt Q16659); assay: as above
Substance,binding [1],binding [2]
"ERK3 (MAPK6), endogenous (from UniProt Q16659 1-721)",binds,
"c-Jun, endogenous (from UniProt P05412 1-331)",,binds
